# Reference: PubChem BioAssay AID1259425 (University of Nebraska Medical Center, 2018)
# Screen: 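Find knockdowns that reproduce the gene expression pattern seen when KSR1 is lost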 (primary screen)
# Cells: HCT116 human colon cancer cells
# Reagent: siRNA pool against human genes, 50 nM siRNA
# Measurement: 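mRNA of six signature genes measured together by branched-DNA assay after 50 nM siRNA pool, blank removed, divided by geometric mean of two housekeeping genes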
# Scale: BNIP3L mRNA: higher = more BNIP3L transcript after knockdown; NDRG1 mRNA: higher = more NDRG1 transcript after knockdown
# This is one part, drawn at random, of about 14,000 reagents tested. Some reagents were tested in more than one well and are listed for each. Not all columns of the deposit are shown. The record does not give: the time to read-out.
gene knocked down,"BNIP3L mRNA, set 1","NDRG1 mRNA, set 1"
F10,0.12,0.187
FEM1A,0.0394,0.114
PGAM1,0.115,0.173
SLC22A1,0.152,0.188
CSNK1G2,0.105,0.329
SLC22A14,0.128,0.195
PPP3R1,0.278,0.821
MED31,0.124,0.111
C1S,0.0758,0.112
CYC1,0.145,0.294
TIAM2,0.0608,0.117
TIAM2,0.0674,0.145
SEPTIN9,0.139,0.214
RAB40C,0.104,0.274
FEM1C,0.164,0.0974
EXOC3,0.16,0.382
MT1B,0.123,0.305
NSG2,0.0848,0.279
NCBP3,0.0977,0.487
EIF2B1,0.22,0.168
PRELID3A,0.156,0.27
TOMM40,0.178,0.309
PDIA6,0.143,0.173
FN3KRP,0.101,0.151
RDH16,0.123,0.377
CCKAR,0.139,0.128
PLPP1,0.142,0.188
CNTN2,0.609,0.677
TCOF1,0.0774,0.117
RNF123,0.163,0.59
CPSF7,0.112,0.102
PEX5L,0.0631,0.305
NIT2,0.0744,0.171
SLC38A7,0.0741,0.223
